Laboratory results as given in patent US20220276244A1.
These are yes or no findings as the source states them, for the method shown. Some binding calls cover weakened binding; strength is not graded here. Sequences can lack the tags named with a protein.

Biological target: recombinant human OX2R receptor (SEQ ID NO:18) having the ECLs from OX2R and the ICLs from the mu-opioid receptor, fused to LgBiT (human)
Test: NanoBiT (LgBiT/SmBiT) complementation in HEK 293T cells, Example 5 (assay of Example 3)

B1: XA8633 fusion (XA8633 fused via a flexible linker to SmBiT) (VHH)
VHH: QVQLQESGGGLVRPGGSRRLSCVDSERTSYPMGWFRRAPGKEREFVASITWSGIDPTYADSVADRFTISRDVANNTLYLQMNSLKHEDTAVYYCAARAPVGQSSSPYDYDYWGQGTQVTVSS
  binding: binds
